Measured values from patent publication US20050118729A1 (published 2005).
Results are given in words; binding and its absence hold for the method and conditions named. Some binding calls cover weakened binding; strength is not graded here.

The chains behind the UniProt entries cited, without tags or fusion partners. Where a name states a change or a piece, a line headed by the entry shows the natural chain unless it says otherwise.
UniProt P13612: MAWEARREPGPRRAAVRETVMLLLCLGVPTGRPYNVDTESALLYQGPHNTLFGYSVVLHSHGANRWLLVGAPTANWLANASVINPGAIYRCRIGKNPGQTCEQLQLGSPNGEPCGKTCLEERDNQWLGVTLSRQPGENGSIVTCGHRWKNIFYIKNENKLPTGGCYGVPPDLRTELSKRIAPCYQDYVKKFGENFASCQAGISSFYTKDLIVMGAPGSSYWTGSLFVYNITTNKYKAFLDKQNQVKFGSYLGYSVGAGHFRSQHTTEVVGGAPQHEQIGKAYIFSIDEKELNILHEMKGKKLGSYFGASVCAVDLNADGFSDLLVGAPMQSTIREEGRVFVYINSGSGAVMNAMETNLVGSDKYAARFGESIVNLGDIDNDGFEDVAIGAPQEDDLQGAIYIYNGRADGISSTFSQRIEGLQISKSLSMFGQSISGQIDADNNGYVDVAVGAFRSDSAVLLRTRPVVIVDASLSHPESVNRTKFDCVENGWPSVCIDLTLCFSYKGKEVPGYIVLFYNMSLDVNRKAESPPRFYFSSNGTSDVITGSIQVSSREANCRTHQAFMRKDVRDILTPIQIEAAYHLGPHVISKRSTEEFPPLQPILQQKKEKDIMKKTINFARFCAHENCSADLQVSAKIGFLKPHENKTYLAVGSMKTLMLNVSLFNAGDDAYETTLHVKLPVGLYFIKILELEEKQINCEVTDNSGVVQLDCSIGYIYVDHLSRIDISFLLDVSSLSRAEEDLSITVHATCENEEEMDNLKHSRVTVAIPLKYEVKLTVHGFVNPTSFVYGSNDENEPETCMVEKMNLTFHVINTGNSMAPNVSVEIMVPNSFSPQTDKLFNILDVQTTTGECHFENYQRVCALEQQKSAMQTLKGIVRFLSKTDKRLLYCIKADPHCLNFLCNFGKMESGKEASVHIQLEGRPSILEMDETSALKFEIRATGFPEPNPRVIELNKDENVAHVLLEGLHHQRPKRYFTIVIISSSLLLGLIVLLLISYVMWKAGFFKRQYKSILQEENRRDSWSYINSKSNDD
UniProt Q06851: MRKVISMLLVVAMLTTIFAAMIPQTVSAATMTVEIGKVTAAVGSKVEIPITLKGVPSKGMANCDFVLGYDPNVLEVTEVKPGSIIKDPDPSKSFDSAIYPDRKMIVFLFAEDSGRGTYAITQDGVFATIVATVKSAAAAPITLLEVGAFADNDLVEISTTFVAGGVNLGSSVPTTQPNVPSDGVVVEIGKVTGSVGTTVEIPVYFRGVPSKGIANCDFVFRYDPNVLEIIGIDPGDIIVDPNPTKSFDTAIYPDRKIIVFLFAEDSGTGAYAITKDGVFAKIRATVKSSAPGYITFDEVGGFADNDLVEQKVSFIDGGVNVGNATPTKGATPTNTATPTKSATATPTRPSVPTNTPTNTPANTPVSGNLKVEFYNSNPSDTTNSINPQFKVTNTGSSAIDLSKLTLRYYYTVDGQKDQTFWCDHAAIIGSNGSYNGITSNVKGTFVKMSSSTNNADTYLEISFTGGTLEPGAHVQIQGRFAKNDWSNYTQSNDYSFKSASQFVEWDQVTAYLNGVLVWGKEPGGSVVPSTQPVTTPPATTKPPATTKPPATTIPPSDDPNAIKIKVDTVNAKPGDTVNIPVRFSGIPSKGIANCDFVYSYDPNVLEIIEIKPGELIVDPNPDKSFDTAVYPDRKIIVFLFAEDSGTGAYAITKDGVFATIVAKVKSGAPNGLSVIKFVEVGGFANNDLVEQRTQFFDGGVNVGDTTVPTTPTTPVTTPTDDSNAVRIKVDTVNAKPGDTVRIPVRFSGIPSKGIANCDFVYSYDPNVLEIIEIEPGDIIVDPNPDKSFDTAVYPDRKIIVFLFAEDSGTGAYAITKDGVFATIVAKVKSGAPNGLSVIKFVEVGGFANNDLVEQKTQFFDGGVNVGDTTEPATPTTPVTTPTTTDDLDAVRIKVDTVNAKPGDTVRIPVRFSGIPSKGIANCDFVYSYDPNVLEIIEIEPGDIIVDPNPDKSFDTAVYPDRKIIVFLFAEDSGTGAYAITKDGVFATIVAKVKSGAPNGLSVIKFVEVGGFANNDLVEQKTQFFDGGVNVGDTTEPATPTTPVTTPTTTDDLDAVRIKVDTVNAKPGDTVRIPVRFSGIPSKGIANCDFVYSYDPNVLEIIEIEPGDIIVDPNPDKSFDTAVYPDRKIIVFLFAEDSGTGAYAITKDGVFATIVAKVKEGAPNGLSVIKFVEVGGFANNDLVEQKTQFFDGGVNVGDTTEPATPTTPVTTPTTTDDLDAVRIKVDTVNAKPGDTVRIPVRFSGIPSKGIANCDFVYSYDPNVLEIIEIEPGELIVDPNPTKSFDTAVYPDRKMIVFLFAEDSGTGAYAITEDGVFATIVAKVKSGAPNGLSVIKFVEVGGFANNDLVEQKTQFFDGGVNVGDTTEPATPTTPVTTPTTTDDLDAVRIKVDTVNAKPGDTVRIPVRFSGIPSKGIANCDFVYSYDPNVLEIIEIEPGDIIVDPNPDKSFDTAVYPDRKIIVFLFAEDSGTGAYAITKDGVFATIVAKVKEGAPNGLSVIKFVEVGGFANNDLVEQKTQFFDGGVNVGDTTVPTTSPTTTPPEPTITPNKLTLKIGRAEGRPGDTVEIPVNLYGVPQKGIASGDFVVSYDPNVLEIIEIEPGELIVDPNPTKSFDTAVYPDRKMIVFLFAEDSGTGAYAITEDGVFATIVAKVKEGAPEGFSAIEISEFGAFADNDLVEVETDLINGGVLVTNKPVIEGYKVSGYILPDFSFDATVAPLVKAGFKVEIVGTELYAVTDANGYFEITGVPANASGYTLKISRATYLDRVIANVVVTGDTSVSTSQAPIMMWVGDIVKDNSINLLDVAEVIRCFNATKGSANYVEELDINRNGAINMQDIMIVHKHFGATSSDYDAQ

Biological target: T1, α4β1 integrin expressed on Jurkat cells (human, UniProt P13612 34-1032; P05556 21-798)
T1 construct: whole, on cells; Cells labeled with a fluorescent dye (Cyto 82); also called receptor recognizing the CS1 peptide
Experiment: cell adhesion of labeled Jurkat cells on microarray

binding: binds
Substance: ZEPHYRIN-CS1 (from UniProt Q06851 361-527)
